Assay results taken from PubChem BioAssay AID1259415 (National Center for Advancing Translational Sciences (NCATS), 2018).
About 18,000 (4.4%) of roughly 410,000 compounds were called active. Inconclusive means that the source gave no clear call. Such entries were picked first, then a sample of the others. Rule as the data show it: active = activity change below about -60%; inconclusive = no clear call, values can overlap the other calls; inactive = above about -39%.

Experiment: qHTS Assay for inhibitors of the human cytomegalovirus (HCMV)
Conditions: HFF cells, HCMV-luciferase reporter, 72 h; at 57.5 µM; stronger effect = lower value
How it was run: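 Luciferase read-out from HCMV-luciferase-infected HFFs (MOI 1 PFU/cell) 72 h post infection at 37C; compounds added after 16 h cell attachment; activity normalized between buffer-only basal and Salinomycin (10uM) inhibitor controls.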
% is scaled to controls: 0 for no effect and ±100 for the full control effect.

| SMILES | activity change, negative = inhibition |
| --- | --- |
| O=C(Cn1cccc1C(=O)c1ccccc1)NCc1ccc(Cl)cc1 | inconclusive: -51.6% |
| CCOC(=O)c1ccc(NC(=O)CSc2nnc(CNC(=O)c3ccco3)o2)cc1 | inconclusive: -40.2% |
| N#Cc1nc(-c2cccs2)oc1N1CCN(Cc2ccccc2)CC1 | inconclusive: -58% |
| O=C(CNc1cccc(S(=O)(=O)N2CCCCC2)c1)Nc1ccc(C(F)(F)F)cc1 | active: -79% |
| CCCc1c(C(=O)N/N=C(\C)c2ccccn2)nnn1-c1nonc1N | active: -97.7% |
| O=C(CC1CC2CCC1C2)N1CCN(S(=O)(=O)c2ccccc2[N+](=O)[O-])CC1 (stereo unspecified) | inactive: -39.6% |
| COc1ccc(/C=C2\SC(=O)N(CCCC(=O)Nc3cc(Cl)ccc3C(=O)O)C2=O)cc1 | active: -92.9% |
| COc1ccc(CCNC(=O)Cn2c(=O)cc(C(F)(F)F)c3c(C)nn(C)c32)c(OC)c1 | inactive: 21.9% |
| Nc1c(-c2cccs2)cnn1-c1nc(-c2ccc(Cl)cc2Cl)cs1 | inconclusive: -49.2% |
| COC(=O)c1c(C)[nH]c(C(=O)C(C)[N+]23CCN(CC2)CC3)c1C (stereo unspecified) | inconclusive: -55.6% |
| O=C(O)c1ccc(N=Nc2c(O)[nH]c3ccc(Br)cc23)cc1 | inactive: 63.8% |
| CCCCc1cc(=O)oc2cc(O)cc(O)c12 | inconclusive: -49.8% |
| Cc1c(Cl)cccc1-c1ccc(C(=O)Nc2ccc3oc(-c4cccnc4)nc3c2)o1 | inconclusive: -44% |
| Cc1cc(C)nc(Sc2ccc([N+](=O)[O-])cc2[N+](=O)[O-])n1 | inconclusive: -51.1% |
| S=c1[nH]nc(COc2ccc(Cl)cc2)n1Cc1ccco1 | inconclusive: -56.6% |
| COc1ccc(S(=O)(=O)N2CCOCC2)cc1NC(=O)CN1CCN(C)CC1 | inactive: -18% |
| Cc1ccc(Oc2ccc(S(=O)(=O)N3CCOCC3)cc2C(N)=O)c(-n2nc3ccccc3n2)c1 | active: -84.9% |
| CC1=C(C(=O)Nc2cccc(F)c2)C2(CCCCCC2)OC1=O | inconclusive: 0% |
| CC(C)C[C@H]1CNC(=O)C(=O)N1C[C@@H]1CCCN1C[C@H](Cc1ccccc1)N1C[C@H](Cc2ccccc2)N(CCc2ccccc2)C(=O)C1=O | inactive: -8.73% |
| COc1cc(C(=O)N/N=C/c2cc([N+](=O)[O-])cs2)cc(OC)c1OC | inconclusive: -47.6% |
| CN(C)S(=O)(=O)c1cc(NC(=O)CN2CCN(c3ccccc3O)CC2)ccc1Cl | inactive: -2.47% |
| Cc1ccc(-c2csc3nc[nH]c(=O)c23)cc1 | inconclusive: -52.7% |

| SMILES | activity change, negative = inhibition |
| --- | --- |
| O=[N+]([O-])c1ncccc1Oc1nc(-c2cccnc2)nc2ccccc12 | inconclusive: -40.4% |
| C=C1CC(Cn2cc(Br)c(=O)[nH]c2=O)(c2ccc(-c3ccccc3)cc2)OC1=O (stereo unspecified) | active: -96.9% |
| Cc1nc(-c2ccc(NS(=O)(=O)c3ccccc3)cc2)cs1 | inconclusive: -43.6% |
| CC1CCCN(C2(O)C(=O)Nc3ccc([N+](=O)[O-])cc32)C1 (stereo unspecified) | active: -63.2% |
| CN1CCN(C(c2cccc(C(F)(F)F)c2)c2nnnn2Cc2ccccc2)CC1 (stereo unspecified) | inactive: -6.63% |
| Cc1ccc2cc(CN(Cc3ccco3)C(=O)c3ccco3)c3nnnn3c2c1 | inconclusive: -43.7% |
| COc1ccc(-c2nc3n(c2C)CCC3)cc1 | inconclusive: -42.4% |
| CC1(c2cccc(Br)c2)NC(=O)NC1=O (stereo unspecified) | inactive: -28.4% |
| NNC(=O)c1sccc1OCc1ccc(Cl)cc1 | inconclusive: -54.1% |
| CCCC1CC(C)(c2csc(Nc3ccc(OCC)cc3)n2)OC1=O (stereo unspecified) | active: -88.6% |
| CCC1=Nc2cc(C(=O)NC3CCCC3)ccc2Sc2ccc(Cl)cc21 | active: -70.5% |
| Cc1ccc(C(=O)C[n+]2cccc3cc(C)ccc32)cc1 | inactive: -32.4% |
| COc1cc(CNCCSc2nnnn2C)ccc1OCc1ccccc1 | inconclusive: -52.5% |
| O=S(=O)(NCC1CCCO1)c1ccc(-c2ccc(Cl)cc2)cc1 (stereo unspecified) | active: -60.4% |
| O=C(Nc1cccc(S(=O)(=O)N2CCCCCC2)c1)C1CCN(C(=O)c2ccc(Cl)cc2)CC1 | inconclusive: -40.6% |
| CS(=O)(=O)N1CC2CCCN2c2cc(C(F)(F)F)ccc21 (stereo unspecified) | inconclusive: -46.9% |
| CN(C(=O)CSc1nc2ccc(NC(=O)c3ccco3)cc2s1)c1ccccc1 | inconclusive: -59.5% |
| Cc1cccc(N2CCN(C(=O)c3ccc(CNc4c(N5CCC(C)CC5)c(=O)c4=O)cc3)CC2)c1C | inconclusive: -42.2% |
| COc1ccc(N2CCN(CCC(=O)c3ccc4ccccc4c3)CC2)cc1 | inactive: 6.67% |
| Cc1cc(NC(=O)Nc2ccc(C)c(C)c2)no1 | inconclusive: -40.4% |
| CCc1ccc[n+](-c2nc3ccccc3nc2C(=C=[N-])C#N)c1 | inconclusive: -42.8% |
| Cc1cnn(-c2nc(-c3ccccc3)cc(-c3ccccc3)n2)c1 | inconclusive: -45.9% |

Some of the entries so far, comma-delimited:
SMILES,"activity change, negative = inhibition"
Cc1cc(NC(=O)Nc2ccc(C)c(C)c2)no1,inconclusive: -40.4%
CCc1ccc[n+](-c2nc3ccccc3nc2C(=C=[N-])C#N)c1,inconclusive: -42.8%
Cc1cnn(-c2nc(-c3ccccc3)cc(-c3ccccc3)n2)c1,inconclusive: -45.9%

Continued:

| SMILES | activity change, negative = inhibition |
| --- | --- |
| COc1cc(/C=N/O)cc(Br)c1OCc1ccc(Cl)cc1 | inconclusive: -45.7% |
| N#Cc1c(-c2ccco2)nc(NCC2CCCO2)[nH]c1=O (stereo unspecified) | inconclusive: -53.4% |
| CC1CCC2C(C1)Nc1c(C(=O)O)cccc1C2(C)C (stereo unspecified) | inconclusive: -47.8% |
| CC(C)Sc1nnc(Nc2ccccc2)s1 | inactive: 31.5% |
| O=C1CC(c2ccccc2)CC(=O)C1CS(=O)(=O)c1ccccc1 (stereo unspecified) | inactive: 4.29% |
| O=S(=O)(c1ccc(Br)cc1)c1cnc2ccccc2n1 | inconclusive: -58.4% |
| S=c1[nH]nc(Cc2noc3ccccc23)n1-c1ccccc1 | inconclusive: -54.5% |
| Cc1ccc(C(=O)N/C(=C\c2ccc(-c3ccc([N+](=O)[O-])cc3)o2)C(=O)NC2CCS(=O)(=O)C2)cc1 (stereo unspecified) | inconclusive: -48.5% |
| CC1CCCCN1C(=O)CSc1nnc(-c2cccc(Cl)c2)o1 (stereo unspecified) | inactive: 26.6% |
| O=C(Nc1cccc(S(=O)(=O)N2CCCC2)c1)c1ccc2c(=O)n3c(nc2c1)CCCCC3 | active: -66.4% |
| Cc1ccc(C2N(c3ccccc3)C(=O)N3CCCN23)cc1 (stereo unspecified) | inconclusive: -52.3% |
| O=C(NCC(=O)N1CCCC1)NN=Cc1ccccc1O | inconclusive: -55.9% |
| CSc1ncccc1C(=O)Nc1ncc(C)s1 | inconclusive: -49.8% |
| O=C(Cn1[nH]c(=O)c2ccccc2c1=O)OCC(=O)c1ccc(F)c(F)c1 | inconclusive: -52.9% |
| CC(C)(O)CC[C@H](OC(=O)c1ccccc1)[C@](C)(O)[C@H]1CC[C@@]2(O)C3=CC(=O)[C@@H]4C[C@@H](O)[C@H](O)C[C@]4(C)C3CC[C@]12C (stereo partly specified) | inconclusive: -41.5% |
| CCc1cccc2c(C(=O)COC(=O)/C=C/c3ccc(O)c(OC)c3)c[nH]c12 | inconclusive: -44.8% |
| Cc1cccc(-n2c(N)cc(=O)nc2SCC(=O)Nc2ccccc2)c1 | inactive: -1.55% |
| c1ccc(CC2CCN(c3nc4ccccc4n4nnnc34)CC2)cc1 | active: -102% |
| O=C(Cc1ccc(Cl)cc1)Nc1ccc2oc(-c3ccccc3)nc2c1 | inactive: 1.26% |
| CCN(CC)C(=O)c1sc2c(c1C)c(=O)n(-c1ccc(C)c(C)c1)c(=O)n2CC(=O)Nc1ccc(F)cc1 | inactive: 12.6% |
| CCOc1cccc2sc(N(CCCN(C)C)C(=O)c3ccc(S(=O)(=O)N4CCc5ccccc5C4)cc3)nc12 | active: -68.2% |
| CC(C)Oc1ccc(CNC(=O)Cc2ccc(NC(=O)N3CCSc4ncccc43)cc2)cc1 | inactive: 0% |

| SMILES | activity change, negative = inhibition |
| --- | --- |
| COc1ccc(OC)c2sc(NNC(=O)COc3ccccc3)nc12 | inactive: -20.1% |
| Cc1ccc(-c2nc3ccc(NS(=O)(=O)c4ccccc4)cc3[nH]2)o1 | inconclusive: -46.6% |
| COc1ccc(C(=O)/C(=C/c2cccs2)c2nc3ccccc3o2)cc1 | inconclusive: -53.3% |
| CCOc1ccc(-c2nonc2NC(=O)c2ccccc2C)cc1 | inconclusive: -43.3% |
| COc1ccc2[nH]c3c(c2c1)CCN1C(=O)C(CC(=O)NCC24CC5CC(CC(C5)C2)C4)C[C@H](C(=O)N2CCOCC2)[C@@]31CCC1CCCC1 (stereo partly specified) | inconclusive: -43.7% |
| CCOC(=O)C1=C(C)N(CC(C)C)C(=O)/C1=C\c1cccs1 | inactive: -27.1% |
| O=C(COC(=O)c1c(F)cccc1F)Nc1ccc2[nH]c(=O)[nH]c2c1 | inconclusive: -44.1% |
| CC(Sc1ccccc1)C(=O)Nc1ccc(S(=O)(=O)N2CCOCC2)cc1 (stereo unspecified) | active: -64% |
| CC1(C)NC(=O)N(CCCCOc2ccc3c(c2)CCC3)C1=O | inactive: -3.73% |
| CCOC(=O)C1(CC2CCCCO2)CCN(S(=O)(=O)c2ccccc2)CC1 (stereo unspecified) | inactive: -4.77% |
| CC(C)Cn1c(=O)c2sccc2n2c(CCCC(=O)Nc3ccc(Cl)cc3)nnc12 | inconclusive: -58.3% |
| COc1ccc(/C=N/OCC(=O)OCC(=O)N(C)c2ccccc2)cc1 | inactive: -9.28% |
| CCOC(=O)c1c(C)cc(C)n2c1nc1ccccc12 | inactive: 12.8% |
| CCOC(=O)Cc1csc(NC(=O)/C=C/c2ccco2)n1 | inactive: 0% |
| COc1ccccc1Nc1nc(-c2cccs2)cs1 | inactive: 163% |
| C[C@@H]1NC(=O)/C(=C\c2ccccc2Br)NC1=O | active: -102% |
| CCCCCCN1C2=NCCCN2c2ccccc21 | inconclusive: -52.5% |
| CCc1ccc(N2CC(C(=O)N3CCN(S(=O)(=O)c4cccc(F)c4)CC3)CC2=O)cc1 (stereo unspecified) | inconclusive: -49.6% |
| O=[N+]([O-])c1cccc(S(=O)(=O)NCc2ccncc2)c1 | inconclusive: -49.7% |
| O=C(Cc1cccs1)N(Cc1ccco1)C1(C(=O)NC2CCCCC2)CCCCC1 | inconclusive: -46.4% |
